Hit rate of the full screen: of about 330,000 compounds, about 7,700 (2.3%) were called active. Inconclusive means that the source gave no clear call. Such entries were picked first, then a sample of the others. The call rests on the fitted dose curve; in most records, active means well fitted inhibition curve with a large enough effect; inconclusive means small, poorly fitted or top-dose-only effect, or effect the other way; inactive means flat fitted curve, though single readings scatter. Potencies of inconclusive entries are doubtful fits and often do not repeat.
Assay: qHTS screen for small molecules that inhibit ELG1-dependent DNA repair in human embryonic kidney (HEK293T) cells expressing luciferase-tagged ELG1; further: nearly all actives have a fitted effect of over 55% in size
Details: HEK293T ELG1-luciferase reporter, luminescence, 16 h, DNA damage induced by 5-fluorouridine; series mostly up to 46.1 µM
How it was run: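 5-Fluorouridine DNA damage + compound/DMSO, 2,000 cells/well, 16 h, 37 °C/5% CO2. ONE-Glo, 30 min RT, luminescence. Readout = decrease in reporter signal.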
Potency means the concentration at half of the fitted maximal effect.

Row | Compound | Potency
1 | COc1cc(C2OC(=O)c3ccccc3S2)cc(OC)c1OC (centres undefined) | inactive
2 | Cc1ccc2nsnc2c1NC(=O)c1ccc(-c2cc(Cl)ccc2Cl)o1 | inconclusive: 29.1 µM [inhibitor, single point]
3 | COc1ccc(N(C)S(=O)(=O)c2cccc(C(=O)OCC(=O)N(C)c3ccccc3)c2)cc1 | active: 16.4 µM
4 | COc1cc(/C=C/C(=O)OCC(=O)N2CCCc3ccccc32)ccc1OC(F)F | inactive
5 | COc1ccc(CNC(=O)CCc2ccc(S(=O)(=O)N3CCCCCC3)cc2)cc1 | inconclusive: 14.6 µM [inhibitor, single point]
6 | COC(=O)[C@@]12CCCCN1[C@H](c1ccc(-c3cc(C(C)=O)cs3)c(OC)c1)[C@H]1C(=O)N(C)C(=O)[C@H]12 | inconclusive: 12.6 µM [inhibitor, single point]
7 | Cc1ccnn1-c1ccc(C(=O)OCC(=O)Nc2ccc(F)cc2)cc1 | inconclusive: 18.3 µM [activator, partial curve]
8 | Cc1ccccc1C(=O)Nc1nnc(CC(=O)N/N=C/c2ccncc2)s1 | inconclusive: 29.1 µM [activator, single point]
9 | C/C(=C\C(=O)c1cccnc1)Nc1ccc(C)c(C)c1 | inconclusive: 8.2 µM [activator, partial curve]
10 | O=C(c1cc2nc(-c3cccs3)cc(C(F)(F)F)n2n1)N1CCCc2ccccc21 | inconclusive: 14.6 µM [activator, partial curve, poor fit]
11 | Cn1c(-c2cc(Cl)ccc2O)nc2c1c(=O)[nH]c(=O)n2Cc1ccccc1 | inactive
12 | N#Cc1c(-c2ccccc2)c(C#N)c2nc3ccccc3n2c1N | inactive
13 | CC(=O)N(CN1C(=O)c2ccc([N+](=O)[O-])cc2C1=O)c1ccc(F)cc1 | inconclusive: 23.1 µM [inhibitor, single point]
14 | COc1ccc(/C=N/NC(=O)c2ccccc2Cl)cc1CSc1nc2ccccc2s1 | inactive
15 | CCn1c(CNS(=O)(=O)c2ccc(Br)cc2)n[nH]c1=S | inactive
16 | COc1ccc(N2CCN(C(=O)Cn3c(=O)c4cccn4c4cccnc43)CC2)cc1 | inconclusive: 25.9 µM [inhibitor, partial curve]
17 | CC(=O)C1(O)C(C)CC2C3CCC4CC(O)CCC4(C)C3=CCC21C (centres undefined) | inactive
18 | CCOc1ccc2nc(SCC3CC3(Cl)Cl)[nH]c2c1 (centres undefined) | inconclusive: 3.66 µM [activator, full curve]
19 | Cc1ccc2nc(N3CCN(C=O)CC3)nc(-c3ccccc3)c2c1 | inconclusive: 25.9 µM [inhibitor, partial curve, poor fit]
20 | CCN(CC)Cc1c(C(=O)N/N=C/c2cccc(OCc3ccc(F)cc3)c2)nnn1-c1nonc1N | inconclusive: 18.3 µM [activator, single point]
21 | CCOc1ccccc1NC(=O)[C@@H](NC(=O)c1cccc(S(=O)(=O)N2CCOCC2)c1)C(C)C | inconclusive: 18.3 µM [inhibitor, partial curve, poor fit]
22 | O=C(O)Cn1c(=O)c2c3c(sc2n(Cc2ccccc2F)c1=O)CCCC3 | inactive

Row | Compound | Potency
23 | CCCCOc1cccc(C(=O)N(Cc2cccs2)C2CCS(=O)(=O)C2)c1 (centres undefined) | inconclusive: 29.1 µM [inhibitor, partial curve, poor fit]
24 | Cc1ccc(NC(=S)NCC2CCCO2)c(OC(F)F)c1 (centres undefined) | inconclusive: 20.6 µM [activator, single point]
25 | O=C(O)CCC(=O)NNC(=O)COc1ccc(Cl)cc1Cl | inactive
26 | Cc1ccc2c(c1)C(c1ccc([N+](=O)[O-])cc1)=NNC(c1ccc(Br)cc1)=N2 | inconclusive: 13 µM [activator, partial curve]
27 | O=C(NC(=S)Nc1ccccn1)c1cc(-c2ccccc2)nc2ccccc12 | inconclusive: 20.6 µM [inhibitor, single point]
28 | Cc1cc(C)cc(NC(=O)C2CCCN(c3nc(C)cc(C)n3)C2)c1 (centres undefined) | inactive
29 | COc1ccc(OC)c(Cc2nnc(CCC(=O)NC3CCCCC3)o2)c1 | inconclusive: 29.1 µM [activator, single point]
30 | Cc1ccc(NC(=O)c2ccn(C)n2)c(Br)c1 | inconclusive: 4.11 µM [activator, partial curve]
31 | CC(Oc1ccc2c(c1)c1ccnc3c4ccccc4c(=O)n2c13)C(=O)NCCN1CCOCC1 (centres undefined) | inconclusive: 18.3 µM [inhibitor, single point]
32 | Cc1cc(NC(C)c2ccccc2)n2ncc(-c3ccccc3)c2n1 (centres undefined) | inconclusive: 14.6 µM [activator, partial curve]
33 | COCCCn1[nH]c2c3c(ccc2c1=O)C(=O)c1ccccc1C3=O | active: 25.9 µM
34 | CN(C)S(=O)(=O)c1ccc(NC(=O)N2CCN(c3cccc(C(F)(F)F)c3)CC2)cc1 | inconclusive: 14.6 µM [inhibitor, partial curve]
35 | CC1CN(S(=O)(=O)c2ccc(NC(=O)c3ccco3)cc2)CC(C)O1 (centres undefined) | inconclusive: 20.6 µM [inhibitor, single point]
36 | N#C/C(=C\c1ccccc1O)C(=O)Nc1cccnc1 | inconclusive: 8.2 µM [activator, partial curve]
37 | Nc1nnnn1/N=C/c1ccc(Br)cc1 | inactive
38 | COc1cnc(-c2ccccn2)nc1Sc1ccccc1Cl | inconclusive: 2.82 µM [inhibitor, partial curve, poor fit]
39 | CC(C)=CC1C(C(=O)Nc2ccc(S(=O)(=O)N3CCOCC3)cc2)C1(C)C (centres undefined) | inconclusive: 5.17 µM [inhibitor, single point]
40 | O=c1[nH]cccc1-c1nc2cc(Cl)ccc2n1Cc1ccccc1 | inactive
41 | Cc1cc(C)n(-c2nc3c(c(=O)[nH]c(=O)n3C)n2CC(O)COc2ccc(Cl)cc2Cl)n1 (centres undefined) | inactive
42 | O=C(c1cccnc1)n1nc(-c2ccco2)nc1NCc1cccs1 | inconclusive: 29.1 µM [activator, single point]
43 | O=C(Nc1ccc(-c2cnco2)cc1)c1ccccc1 | inconclusive: 10.3 µM [activator, partial curve]
44 | S=C(NCCN1CCCCC1)Nc1ccccc1 | inactive

Reformatted as tab-separated lines: entries from further up
Row	Compound	Potency
16	COc1ccc(N2CCN(C(=O)Cn3c(=O)c4cccn4c4cccnc43)CC2)cc1	inconclusive: 25.9 µM [inhibitor, partial curve]
17	CC(=O)C1(O)C(C)CC2C3CCC4CC(O)CCC4(C)C3=CCC21C (centres undefined)	inactive
18	CCOc1ccc2nc(SCC3CC3(Cl)Cl)[nH]c2c1 (centres undefined)	inconclusive: 3.66 µM [activator, full curve]
19	Cc1ccc2nc(N3CCN(C=O)CC3)nc(-c3ccccc3)c2c1	inconclusive: 25.9 µM [inhibitor, partial curve, poor fit]
